# Values of other authors in US20100075918A1, “HYALURONIDASE INHIBITORS AS ANTI-CANCER AGENTS” (priority 2006, published 2010).
# For at least one compound, name, drawing or mass did not settle the structure.
# Tested on: HYAL1, testicular, honeybee, and Streptomyces hyaluronidases (HAases)
# Conditions: Isoyama et al. (2006); 21 potential inhibitors; cited from earlier work
structure (smiles),measurement,value
Cc1cc2c(C(C)C)c(O)c(O)c(C=O)c2c(O)c1-c1c(C)cc2c(C(C)C)c(O)c(O)c(C=O)c2c1O [Gossypol],Effectiveness as HAase inhibitor,not effective HAase inhibitors
